Measurements taken from PubChem BioAssay AID1347075 (National Center for Advancing Translational Sciences (NCATS), 2019).
The whole screen tested about 400,000 compounds, of which about 5,500 (1.4%) were called active. The shares of active, inactive and inconclusive entries below differ from those in the screen. Calls come from the whole dose curve; as a rule, active = well fitted cell-killing curve with a large enough effect; inconclusive = small, poorly fitted or top-dose-only effect, or effect the other way; inactive = flat fitted curve, though single readings scatter. Where the call is inconclusive, the potency comes from a doubtful curve fit.

Assay: qHTS assay for MDR1-selective chemotherapeutics: Primary screen using the parental adenocarcinoma cell KB-3-1; note: nearly all actives have a fitted effect of over 60% in size
Conditions: KB-3-1 viability, CellTiter-Glo ATP luminescence, 72 h; activity change, negative = cytotoxic: at 46.1 µM (top of the series)
How it was run: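 Parental KB-3-1 viability, qHTS format: 72 h compound exposure, 37 °C; CellTiter-Glo; media-only wells and DMSO plates as controls; concentration-effect fits on corrected data.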
% is set by controls: 0 for no effect and ±100 for the full control effect; potency is the fitted concentration of half-maximal effect.

SMILES	activity change, negative = cytotoxic	Potency
Cc1ccnc(Nc2nc3ccccc3o2)n1	inconclusive: -60.5%	–
C[C@H]1CCC[C@]2(C)C[C@H]3OC(=O)C(CN4CCCCCC4)[C@H]3C=C12 (stereo partly drawn)	–	inconclusive: 20.6 µM [cytotoxic, single point]
COc1ccc(C2CC(C(F)(F)F)n3nc(C(=O)O)cc3N2)cc1 (stereo not drawn)	inactive: 8.04%	–
O=C(NCC(c1ccco1)N1CCN(c2ccccc2F)CC1)c1ccc2c(c1)OCO2 (stereo not drawn)	–	inconclusive: 18.4 µM [cytotoxic, single point]
c1ccc(-c2nc(NCc3cccnc3)c3ccccc3n2)cc1	inactive: 28.8%	–
CNc1nc2c(c(=O)[nH]c(=O)n2C)n1CCCc1ccccc1	inactive: 3.81%	–
O=C(CN(C1CCCCC1)S(=O)(=O)c1ccc(F)cc1)NCC1CCCO1 (stereo not drawn)	–	active: 4.61 µM
COc1ccc(CC(=O)Nc2cccc(S(=O)(=O)N3CCOCC3)c2)cc1OC	–	inconclusive: 29.1 µM [cytotoxic, single point]
Cc1cc(C)n2nc(-c3cccnc3)nc2n1	inactive: 17%	–
COc1cc(NS(=O)(=O)c2c(C(=O)N3CCCCC3)c(C)n(C)c2C)cc(OC)c1OC	inactive: 17.4%	–
Cc1cc(C)cc(CC(Cc2nc3ccccc3[nH]2)c2nc3ccccc3[nH]2)c1 (stereo not drawn)	–	active: 16.4 µM
O=[N+]([O-])c1cccnc1NCCc1c[nH]c2ccccc12	–	inconclusive: 32.6 µM [cytotoxic, single point]
CC(=O)N1N=C(c2ccccc2OC(=O)/C=C/c2ccccc2)CC1c1ccccc1 (stereo not drawn)	inconclusive: -5.95%	–
O=C(Nc1ncccc1O)c1ccc(S(=O)(=O)Nc2ccccc2)cc1	–	active: 10.3 µM
Cc1onc(-c2c(F)cccc2Cl)c1C(=O)Nc1cccc2nsnc12	–	active: 18.4 µM
c1ccc(-c2nnsc2-c2ccccc2)cc1	inactive: 15.1%	–
O=C(NCc1ccccc1)C(c1ccccc1)N(C(=O)c1csnn1)C1CC1 (stereo not drawn)	–	inconclusive: 25.9 µM [rising, single point]
CCCCCCC(C)NC(=S)Nc1cc(S(=O)(=O)N(C)C)ccc1C (stereo not drawn)	–	inconclusive: 18.4 µM [cytotoxic, single point]
Cc1nc(NC(=O)COC(=O)C2CC2C)c(Cl)cc1Cl (stereo not drawn)	–	inconclusive: 23.1 µM [rising, single point]
O=C(c1ccc(COc2c(F)c(F)cc(F)c2F)o1)N1CCN(c2ccccc2)CC1	–	inconclusive: 16.4 µM [cytotoxic, single point]
O=C1OC2(c3ccccc31)c1ccccc1-c1ccccc12	–	inconclusive: 18.4 µM [cytotoxic, single point]
COc1ccc2c(c1)/C(=C\c1cccc(/C=C3/C(=O)Nc4ccc(OC)cc43)n1)C(=O)N2	–	active: 1.84 µM
Cc1cc(C)c(C(=O)Nc2ccc(Br)c(C(F)(F)F)c2)c(C)c1	–	inconclusive: 18.4 µM [cytotoxic, single point]
CCOc1ccccc1N(CC(=O)Nc1ccc(S(=O)(=O)N2CCOCC2)cc1)S(=O)(=O)c1ccccc1	–	inconclusive: 20.6 µM [cytotoxic, single point]

SMILES	activity change, negative = cytotoxic	Potency
CCCCNc1nc(N)nc(-c2cc(Cl)ccc2O)n1	–	inconclusive: 25.9 µM [cytotoxic, single point]
O=c1cc(COc2ncnc3ccccc23)nc2sccn12	–	inconclusive: 9.2 µM [rising, partial curve, poor fit]
CCc1ccc(C(=O)NC(=S)Nc2ccccc2N2CCOCC2)cc1	–	inconclusive: 29.1 µM [cytotoxic, single point]
Cc1cccc(/C=N\NC(=O)c2ccc(Cl)cc2)c1O	–	inconclusive: 13 µM [cytotoxic, partial curve, poor fit]
CCOC(=O)C1=C(C)NC2=C(C(=O)OC2)C1c1ccccc1 (stereo not drawn)	–	inconclusive: 16.4 µM [cytotoxic, partial curve, poor fit]
Fc1ccc(-c2cc(-c3ccccc3)c3c(n2)-c2ccccc2OC3)cc1	inactive: 5.83%	–
COc1ccccc1C1NC(=O)NC(C)=C1C(=O)OC1CCCCC1 (stereo not drawn)	inactive: 0.0582%	–
O=C(Cn1nc(CNc2ccc(Cl)cc2)[n+]2c1CCCCC2)c1ccccc1	–	inconclusive: 14.6 µM [cytotoxic, partial curve]
Cc1cc(=O)c2cc(C(=O)Nc3ccc(F)cc3)ccc2[nH]1	inactive: 9.45%	–
COc1ccc(CCC(=O)N2CC(C)OC(C)C2)cc1 (stereo not drawn)	–	inconclusive: 29.1 µM [cytotoxic, single point]
CC(C)c1ccc2c(c1)c(SC(C)(C)C)c(CC(C)(C)C(=O)O)n2Cc1ccc(Cl)cc1	–	inconclusive: 29.1 µM [cytotoxic, single point]
CCCCOc1ccc(S(=O)(=O)Nc2ccc(NC(C)=O)cc2)cc1	–	inconclusive: 29.1 µM [cytotoxic, single point]
O=C(CN1C(=O)c2ccccc2C1=O)NC1CCCCC1	–	inconclusive: 16.4 µM [rising, single point]
Cc1ccc(C=Nc2ccccc2C#N)s1	inactive: 14.5%	–
Cc1cccn2c(=O)c(C(=O)NC(C)c3ccccc3)c(O)nc12 (stereo not drawn)	inactive: -27.4%	–
COc1ccc(OC)c(C2C3=C(COC3=O)Nc3cc4c(cc32)OCO4)c1 (stereo not drawn)	–	active: 0.058 µM
CC(=O)Nc1nnc(SCc2ccccc2F)s1	inactive: 0.444%	–
O=C(Cn1c(-c2cccs2)cc2cc(F)ccc21)N1CCN(c2ccccc2)CC1	inactive: -7.92%	–
COc1ccccc1CCC(=O)Nc1ccc2c(c1)c(=O)n(C)n2Cc1ccc(F)cc1	–	active: 8.2 µM
COc1cccc(S(=O)(=O)N(C)C[C@H]2OCc3cn(nn3)CCCC(=O)N([C@H](C)CO)C[C@@H]2C)c1	–	inconclusive: 11.6 µM [rising, single point]
CN(C)CCCNC(=S)N(Cc1cccs1)Cc1cc2cc3c(cc2[nH]c1=O)OCCO3	inconclusive: 22.7%	–
COc1ccc(-c2cccc([C@H]3[C@@H]4C=CC[C@@H](C)[C@@H]4C(=O)N3Cc3ccccc3)c2)cc1	–	inconclusive: 23.1 µM [cytotoxic, single point]
Cc1cccc(C(=O)N2CCc3cc(-c4csc(NC(=O)CN5CCCC5)n4)ccc32)c1	inactive: -26.1%	–
Oc1ccccc1C=NNC(=S)Nc1ccc(F)cc1	–	inconclusive: 4.11 µM [cytotoxic, full curve]

Individual results from the entries so far:
Under activity change, negative = cytotoxic, Cc1cccn2c(=O)c(C(=O)NC(C)c3ccccc3)c(O)nc12 (stereo not drawn) has inactive: -27.4%
Under Potency, COc1ccc(-c2cccc([C@H]3[C@@H]4C=CC[C@@H](C)[C@@H]4C(=O)N3Cc3ccccc3)c2)cc1 has inconclusive: 23.1 µM [cytotoxic, single point]
Under Potency, COc1ccc(OC)c(C2C3=C(COC3=O)Nc3cc4c(cc32)OCO4)c1 (stereo not drawn) has active: 0.058 µM
Under Potency, CCCCNc1nc(N)nc(-c2cc(Cl)ccc2O)n1 has inconclusive: 25.9 µM [cytotoxic, single point]
